According to patent US5821222A (Bayer Aktiengesellschaft, priority 1992, dated 1998):

Experiment: general procedure: solution-phase peptide synthesis; BOP-Cl / N,N-diisopropylethylamine; DCC/pentafluorophenol for active ester

With “Cyclo(N-methyl-L-isoleucyl-D-lactyl-N-methyl-L-isoleucyl-D-lactyl-N-methyl-L-isoleucyl-D-lactyl-)” the cyclisation yield (cyclisation step) was 36.8% of theory and the “final purity (method not given)” value (cyclisation step) was “purity 84%”.

In the case of “N-Benzyloxycarbonyl-N-methyl-L-isoleucyl-D-lactyl-N-methyl-L-isoleucyl-D-lactyl-N-methyl-L-isoleucyl-D-lactic acid”, the step yield (late stage modification step) is reported as 82.9% of theory.

In the case of “N-Methyl-L-isoleucyl-D-lactyl-N-methyl-L-isoleucyl-D-lactyl-N-methyl-L-isoleucyl-D-lactic acid”, the step yield (late stage modification step) is reported as 100% of theory.

For “Pentafluorophenyl N-benzyloxycarbonyl-N-methyl-L-isoleucyl-D-lactyl-N-methyl-L-isoleucyl-D-lactyl-N-methyl-L-isoleucyl-D-lactate”, the step yield (late stage modification step) was 54% of theory.

For “tert-Butyl N-benzyl-N-methyl-L-leucyl-D-lactyl-N-methyl-L-leucyl-D-lactate”, the step yield (coupling step) was 96.0% of theory.

For “tert-Butyl N-benzyloxycarbonyl-N-methyl-L-isoleucyl-D-lactyl-N-methyl-L-isoleucyl-D-lactyl-N-methyl-L-iso-leucyl-D-lactate”, the step yield (coupling step) was 77.4% of theory.

For “tert-Butyl N-methyl-L-leucyl-D-lactyl-N-methyl-L-leucyl-D-lactate”, the step yield (late stage modification step) was 100% of theory.
